Assay results taken from article PMC11914185.
These are yes or no findings as the source states them, for the method shown. Binding seen in cells or lysates may run through a third protein. These calls come from enrichment with a bait or labelling near it, and not all partners need be listed.

Sequences of proteins named here, by UniProt entry; tags and fusion partners are left off.
UniProt Q9HCK8: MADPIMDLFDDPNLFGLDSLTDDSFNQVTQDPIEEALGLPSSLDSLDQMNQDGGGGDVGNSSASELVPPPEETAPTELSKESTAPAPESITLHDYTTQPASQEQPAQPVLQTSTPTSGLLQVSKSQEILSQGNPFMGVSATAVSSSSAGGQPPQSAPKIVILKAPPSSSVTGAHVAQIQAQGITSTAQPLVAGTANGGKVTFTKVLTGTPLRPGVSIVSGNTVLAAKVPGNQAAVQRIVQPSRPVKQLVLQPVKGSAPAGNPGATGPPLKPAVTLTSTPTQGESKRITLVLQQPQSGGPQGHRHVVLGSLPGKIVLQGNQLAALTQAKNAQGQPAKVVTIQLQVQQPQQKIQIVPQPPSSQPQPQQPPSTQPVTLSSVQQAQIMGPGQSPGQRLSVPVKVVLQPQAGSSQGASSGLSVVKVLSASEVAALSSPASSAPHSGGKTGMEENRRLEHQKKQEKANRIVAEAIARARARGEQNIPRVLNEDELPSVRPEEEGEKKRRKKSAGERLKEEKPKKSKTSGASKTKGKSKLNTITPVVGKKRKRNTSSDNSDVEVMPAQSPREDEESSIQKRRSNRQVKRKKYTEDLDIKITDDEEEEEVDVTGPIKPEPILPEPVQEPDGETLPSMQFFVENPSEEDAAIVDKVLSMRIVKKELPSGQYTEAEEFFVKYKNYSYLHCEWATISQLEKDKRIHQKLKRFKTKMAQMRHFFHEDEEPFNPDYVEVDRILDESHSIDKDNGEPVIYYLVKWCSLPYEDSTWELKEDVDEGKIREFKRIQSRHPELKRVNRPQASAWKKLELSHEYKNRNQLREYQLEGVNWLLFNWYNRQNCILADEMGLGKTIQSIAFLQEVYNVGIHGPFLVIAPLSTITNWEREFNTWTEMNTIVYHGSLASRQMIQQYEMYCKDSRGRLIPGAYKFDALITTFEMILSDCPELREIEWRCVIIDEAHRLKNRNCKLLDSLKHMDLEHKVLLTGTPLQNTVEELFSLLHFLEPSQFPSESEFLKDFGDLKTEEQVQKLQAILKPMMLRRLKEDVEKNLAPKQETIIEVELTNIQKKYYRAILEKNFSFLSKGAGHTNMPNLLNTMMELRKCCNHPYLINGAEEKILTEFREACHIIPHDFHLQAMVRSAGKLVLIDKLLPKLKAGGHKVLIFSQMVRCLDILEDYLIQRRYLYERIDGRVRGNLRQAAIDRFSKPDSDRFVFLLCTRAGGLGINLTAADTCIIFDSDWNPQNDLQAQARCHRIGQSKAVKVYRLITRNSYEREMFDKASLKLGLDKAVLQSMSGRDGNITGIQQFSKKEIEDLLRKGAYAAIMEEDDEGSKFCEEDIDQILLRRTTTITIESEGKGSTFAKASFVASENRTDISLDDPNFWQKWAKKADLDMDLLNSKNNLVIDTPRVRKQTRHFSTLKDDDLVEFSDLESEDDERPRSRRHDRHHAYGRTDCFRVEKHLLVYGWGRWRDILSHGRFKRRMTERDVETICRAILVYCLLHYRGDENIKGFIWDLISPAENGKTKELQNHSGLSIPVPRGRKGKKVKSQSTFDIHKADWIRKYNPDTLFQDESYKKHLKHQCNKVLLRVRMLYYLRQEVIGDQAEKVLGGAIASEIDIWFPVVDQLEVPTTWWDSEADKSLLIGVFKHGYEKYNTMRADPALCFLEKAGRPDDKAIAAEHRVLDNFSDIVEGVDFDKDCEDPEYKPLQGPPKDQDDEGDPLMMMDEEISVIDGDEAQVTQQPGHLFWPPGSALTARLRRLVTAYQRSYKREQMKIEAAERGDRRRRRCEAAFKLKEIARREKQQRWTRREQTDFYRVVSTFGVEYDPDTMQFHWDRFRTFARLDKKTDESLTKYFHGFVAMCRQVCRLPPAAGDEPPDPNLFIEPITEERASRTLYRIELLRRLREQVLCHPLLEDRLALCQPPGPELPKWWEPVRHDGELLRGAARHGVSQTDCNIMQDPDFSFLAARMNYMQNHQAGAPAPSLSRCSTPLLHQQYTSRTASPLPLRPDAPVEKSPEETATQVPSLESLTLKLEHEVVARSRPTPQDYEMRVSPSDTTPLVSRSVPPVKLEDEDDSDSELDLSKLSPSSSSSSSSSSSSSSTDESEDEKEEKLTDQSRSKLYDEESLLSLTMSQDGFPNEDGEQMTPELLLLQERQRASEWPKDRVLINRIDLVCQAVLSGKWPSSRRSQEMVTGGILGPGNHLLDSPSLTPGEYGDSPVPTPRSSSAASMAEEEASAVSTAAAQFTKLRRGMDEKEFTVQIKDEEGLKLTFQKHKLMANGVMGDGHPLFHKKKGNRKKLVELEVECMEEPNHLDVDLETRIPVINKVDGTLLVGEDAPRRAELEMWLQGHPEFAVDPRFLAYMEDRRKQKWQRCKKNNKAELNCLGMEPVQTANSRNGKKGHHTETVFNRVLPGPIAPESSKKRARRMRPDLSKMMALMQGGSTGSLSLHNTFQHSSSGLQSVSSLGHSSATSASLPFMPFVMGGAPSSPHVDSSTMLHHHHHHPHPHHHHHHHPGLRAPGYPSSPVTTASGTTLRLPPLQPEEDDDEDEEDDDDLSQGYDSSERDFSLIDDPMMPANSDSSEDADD
UniProt O95619: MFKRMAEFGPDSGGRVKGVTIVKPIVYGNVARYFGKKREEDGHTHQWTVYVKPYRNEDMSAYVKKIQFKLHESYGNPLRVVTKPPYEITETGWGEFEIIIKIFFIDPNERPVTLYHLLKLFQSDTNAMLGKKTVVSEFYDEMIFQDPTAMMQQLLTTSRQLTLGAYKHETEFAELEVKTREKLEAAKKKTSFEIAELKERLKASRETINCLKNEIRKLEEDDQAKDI
UniProt Q52LR7: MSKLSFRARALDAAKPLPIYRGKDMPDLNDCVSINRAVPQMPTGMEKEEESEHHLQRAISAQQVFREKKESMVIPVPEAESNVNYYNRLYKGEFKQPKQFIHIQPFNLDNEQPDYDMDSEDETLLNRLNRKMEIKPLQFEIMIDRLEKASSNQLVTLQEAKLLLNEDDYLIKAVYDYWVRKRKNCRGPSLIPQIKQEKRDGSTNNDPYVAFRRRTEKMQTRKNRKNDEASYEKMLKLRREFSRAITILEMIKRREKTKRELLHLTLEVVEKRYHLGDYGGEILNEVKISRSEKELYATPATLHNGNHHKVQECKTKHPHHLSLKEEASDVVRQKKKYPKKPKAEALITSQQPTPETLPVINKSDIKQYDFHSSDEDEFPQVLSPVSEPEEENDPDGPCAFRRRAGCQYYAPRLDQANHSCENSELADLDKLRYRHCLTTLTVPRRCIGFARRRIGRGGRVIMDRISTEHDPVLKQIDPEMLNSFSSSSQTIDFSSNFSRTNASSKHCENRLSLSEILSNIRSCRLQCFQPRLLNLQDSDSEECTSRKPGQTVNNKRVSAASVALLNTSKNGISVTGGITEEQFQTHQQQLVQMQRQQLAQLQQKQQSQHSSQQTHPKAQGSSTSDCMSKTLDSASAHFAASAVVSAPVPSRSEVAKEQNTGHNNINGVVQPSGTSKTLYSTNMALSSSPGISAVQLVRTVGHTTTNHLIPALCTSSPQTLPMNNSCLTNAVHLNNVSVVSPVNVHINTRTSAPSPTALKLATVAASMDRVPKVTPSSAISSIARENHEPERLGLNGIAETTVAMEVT
UniProt Q92993: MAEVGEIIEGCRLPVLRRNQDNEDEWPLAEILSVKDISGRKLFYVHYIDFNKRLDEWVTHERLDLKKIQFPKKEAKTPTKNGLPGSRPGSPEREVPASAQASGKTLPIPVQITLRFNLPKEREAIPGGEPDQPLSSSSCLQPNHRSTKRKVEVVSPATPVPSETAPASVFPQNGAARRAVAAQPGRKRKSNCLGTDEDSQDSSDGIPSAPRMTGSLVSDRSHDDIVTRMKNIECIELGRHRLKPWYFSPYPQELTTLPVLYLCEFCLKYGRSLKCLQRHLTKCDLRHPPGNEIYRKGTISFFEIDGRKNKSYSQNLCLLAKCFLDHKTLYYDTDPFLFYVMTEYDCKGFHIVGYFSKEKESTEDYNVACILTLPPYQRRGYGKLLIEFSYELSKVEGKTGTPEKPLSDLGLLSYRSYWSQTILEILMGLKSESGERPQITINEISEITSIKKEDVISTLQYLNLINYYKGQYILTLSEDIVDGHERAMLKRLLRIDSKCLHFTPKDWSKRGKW
UniProt Q9H0E9: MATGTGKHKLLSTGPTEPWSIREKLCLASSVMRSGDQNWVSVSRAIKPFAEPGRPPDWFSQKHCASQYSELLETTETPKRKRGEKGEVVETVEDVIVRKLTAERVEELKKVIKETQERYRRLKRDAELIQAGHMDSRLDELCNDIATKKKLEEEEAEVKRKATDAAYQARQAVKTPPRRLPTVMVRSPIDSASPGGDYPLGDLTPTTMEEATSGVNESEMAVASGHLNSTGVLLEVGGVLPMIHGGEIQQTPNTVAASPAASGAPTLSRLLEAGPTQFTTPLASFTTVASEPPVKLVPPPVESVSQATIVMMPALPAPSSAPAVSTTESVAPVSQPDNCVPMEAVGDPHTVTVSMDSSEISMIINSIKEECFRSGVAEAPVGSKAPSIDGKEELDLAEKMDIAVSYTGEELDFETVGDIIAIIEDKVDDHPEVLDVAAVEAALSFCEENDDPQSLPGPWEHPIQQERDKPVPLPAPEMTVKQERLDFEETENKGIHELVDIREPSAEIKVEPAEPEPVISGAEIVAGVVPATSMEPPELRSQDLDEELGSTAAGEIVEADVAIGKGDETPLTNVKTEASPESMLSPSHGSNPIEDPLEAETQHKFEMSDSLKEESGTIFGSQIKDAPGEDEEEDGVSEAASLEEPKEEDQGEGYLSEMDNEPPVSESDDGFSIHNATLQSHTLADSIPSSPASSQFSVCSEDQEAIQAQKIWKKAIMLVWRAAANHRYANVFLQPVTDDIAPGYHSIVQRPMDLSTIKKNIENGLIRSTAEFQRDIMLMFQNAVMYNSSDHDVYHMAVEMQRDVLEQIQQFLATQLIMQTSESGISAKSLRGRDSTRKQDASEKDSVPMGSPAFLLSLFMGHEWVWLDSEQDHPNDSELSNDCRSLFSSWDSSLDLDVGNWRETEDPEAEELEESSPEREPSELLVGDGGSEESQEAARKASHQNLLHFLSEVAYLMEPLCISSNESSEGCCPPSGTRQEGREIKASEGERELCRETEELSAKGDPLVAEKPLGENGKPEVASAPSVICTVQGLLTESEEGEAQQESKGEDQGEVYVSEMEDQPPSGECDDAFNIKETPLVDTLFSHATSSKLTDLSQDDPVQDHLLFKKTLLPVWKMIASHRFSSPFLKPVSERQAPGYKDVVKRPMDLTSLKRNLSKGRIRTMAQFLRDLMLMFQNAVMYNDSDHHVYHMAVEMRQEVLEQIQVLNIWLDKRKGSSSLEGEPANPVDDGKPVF
UniProt Q9Y265: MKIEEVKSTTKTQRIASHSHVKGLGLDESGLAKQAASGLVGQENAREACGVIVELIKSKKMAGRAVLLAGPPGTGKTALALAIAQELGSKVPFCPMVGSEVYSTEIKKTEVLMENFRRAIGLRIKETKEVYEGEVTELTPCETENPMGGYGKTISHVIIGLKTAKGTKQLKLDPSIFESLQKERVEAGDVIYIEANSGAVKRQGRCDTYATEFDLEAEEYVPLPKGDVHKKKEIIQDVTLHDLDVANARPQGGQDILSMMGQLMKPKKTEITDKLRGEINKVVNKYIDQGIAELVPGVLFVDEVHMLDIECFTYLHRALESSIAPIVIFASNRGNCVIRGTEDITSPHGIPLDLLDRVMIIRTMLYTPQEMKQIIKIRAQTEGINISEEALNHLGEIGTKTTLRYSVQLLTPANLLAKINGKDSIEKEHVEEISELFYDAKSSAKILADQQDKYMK
UniProt Q9UBU8: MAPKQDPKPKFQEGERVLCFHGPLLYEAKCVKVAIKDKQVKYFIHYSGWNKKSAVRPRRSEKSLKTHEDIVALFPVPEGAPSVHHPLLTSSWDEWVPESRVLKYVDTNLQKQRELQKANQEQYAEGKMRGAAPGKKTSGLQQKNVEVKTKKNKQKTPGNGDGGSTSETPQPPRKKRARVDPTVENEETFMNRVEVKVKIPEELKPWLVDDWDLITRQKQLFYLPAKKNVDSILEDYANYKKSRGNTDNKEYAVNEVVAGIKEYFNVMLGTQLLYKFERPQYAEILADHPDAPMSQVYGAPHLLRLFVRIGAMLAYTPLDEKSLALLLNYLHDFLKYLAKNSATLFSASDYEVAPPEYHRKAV
UniProt Q9NXR8: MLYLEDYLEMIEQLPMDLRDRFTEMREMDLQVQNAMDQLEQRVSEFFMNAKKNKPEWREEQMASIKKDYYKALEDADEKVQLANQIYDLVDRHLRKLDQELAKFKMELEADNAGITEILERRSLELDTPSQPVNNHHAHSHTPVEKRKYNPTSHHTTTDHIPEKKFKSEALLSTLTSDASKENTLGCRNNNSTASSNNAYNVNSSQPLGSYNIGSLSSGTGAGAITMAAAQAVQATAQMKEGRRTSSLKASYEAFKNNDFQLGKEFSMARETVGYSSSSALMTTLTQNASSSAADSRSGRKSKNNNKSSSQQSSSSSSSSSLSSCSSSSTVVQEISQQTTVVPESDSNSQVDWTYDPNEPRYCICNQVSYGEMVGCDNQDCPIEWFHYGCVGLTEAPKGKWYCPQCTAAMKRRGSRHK

B1: ZNF143 (protein, UniProt P52747 1-638)
chain: MLLAQINRDSQGMTEFPGGGMEAQHVTLCLTEAVTVADGDNLENMEGVSLQAVTLADGSTAYIQHNSKDAKLIDGQVIQLEDGSAAYVQHVPIPKSTGDSLRLEDGQAVQLEDGTTAFIHHTSKDSYDQSALQAVQLEDGTTAYIHHAVQVPQSDTILAIQADGTVAGLHTGDATIDPDTISALEQYAAKVSIDGSESVAGTGMIGENEQEKKMQIVLQGHATRVTAKSQQSGEKAFRCEYDGCGKLYTTAHHLKVHERSHTGDRPYQCEHAGCGKAFATGYGLKSHVRTHTGEKPYRCSEDNCTKSFKTSGDLQKHIRTHTGERPFKCPFEGCGRSFTTSNIRKVHVRTHTGERPYYCTEPGCGRAFASATNYKNHVRIHTGEKPYVCTVPGCDKRFTEYSSLYKHHVVHTHSKPYNCNHCGKTYKQISTLAMHKRTAHNDTEPIEEEQEAFFEPPPGQGEDVLKGSQITYVTGVEGDDVVSTQVATVTQSGLSQQVTLISQDGTQHVNISQADMQAIGNTITMVTQDGTPITVPAHDAVISSAGTHSVAMVTAEGTEGEQVAIVAQDLAAFHTASSEMGHQQHSHHLVTTETRPLTLVATSNGTQIAVQLGEQPSLEEAIRIASRIQQGETPGLDD

The molecules below were run against F-CHD8 (Chromodomain helicase DNA-binding protein 8 with a double FLAG tag and a V5 tag at the C-terminus, knocked into both alleles) (human (endogenous in hNSCs)) (UniProt Q9HCK8) (assay: affinity purification with mass spectrometry; anti-FLAG M2 agarose beads on 1.5 ml dialyzed nuclear extract of F-CHD8 hNSCs (control hNSCs as control), 3 h at 4°C with 225 units Benzonase, buffer C-100* (20 mM Hepes pH 7.6, 100 mM KCl, 0.02% NP40), eluted with FLAG-tripeptide; three independent purifications; MASCOT and MaxQuant analyses).

binding | Molecule
binds | TRRAP (from UniProt Q9Y4A5 1-3859)
binds | YEATS4 (from UniProt O95619 1-227)
binds | DMAP1 (from UniProt Q9NPF5 1-467)
binds | EPC2 (from UniProt Q52LR7 1-807)
binds | KAT5 (from UniProt Q92993 1-513)
binds | BRD8 (from UniProt Q9H0E9 1-1235)
binds | MBTD1 (from UniProt Q05BQ5 1-628)
binds | MYCBP2 (from UniProt O75592 1-4678)
binds | EPC1 (from UniProt Q9H2F5 1-836)
binds | EP400 (from UniProt Q96L91 1-3159)
binds | RUVBL1 (from UniProt Q9Y265 1-456)
binds | CHD7 (from UniProt Q9P2D1 1-2997)
binds | MORF4L1 (from UniProt Q9UBU8 1-362)
binds | ING3 (from UniProt Q9NXR8 1-418)
binds | B1
